# Experimental data published in PubChem BioAssay AID445 (National Center for Advancing Translational Sciences (NCATS), 2006).
# The list shows a part of the results. The main result of the screen is listed elsewhere. These columns were measured beside it and carry no call. The list favours compounds with an active or inconclusive main result. Words in brackets tell the shape of the fitted curve; partial curves, single points and poor fits give uncertain potencies.
# Experiment: IkB Signaling
# Conditions: ABC-DLBCL IkBa-CBG/CBR dual luciferase ratio (green luciferase fused to IkBa over red control in OCI-Ly3 lymphoma cells), 4 h; measured here: control luc red channel unless noted
# Summary of the method: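 Curves were fitted separately to fusion (green), unfused (red) and ratio luminescence, then classed by r2, magnitude and activity. Cells: OCI-Ly3, 4 h compound plus doxycycline at 37C; 10 uM MG-132 defined full response.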
row,Structure (SMILES),AC50
1,COc1ccccc1-c1cc(C(=O)Nc2ccccc2C(F)(F)F)no1,"0.00794 µM [falling, full curve]"
2,O=C(NCCSCc1ccc(Cl)cc1)C1CCN(S(=O)(=O)Cc2ccccc2)CC1,"15.8 µM [falling, single point]"
3,O=C(CN1C(=O)C2CCCCN2c2ccc(C(=O)N3CCCC3)cc21)NCc1cccc(Cl)c1 (configuration not stated),"2 µM [falling, full curve, poor fit]"
4,Cc1ccc(Cl)c2sc(NC(=O)CS(=O)(=O)c3ccc(Cl)cc3)nc12,"15.8 µM [falling, partial curve]"
5,Cc1ccc(CN(C(=O)Nc2cccc(Cl)c2)c2ccccn2)cc1,"0.501 µM [rising, full curve]"
6,O=C(CSc1nnc2c(n1)[nH]c1ccc(F)cc12)OCc1ccccc1,"15.8 µM [falling, partial curve]"
7,COc1ccc(Cn2nnnc2C(C(C)C)N2CCc3ccccc32)cc1 (configuration not stated),"20 µM [falling, single point]"
8,O=C(Nc1ccc(N2CCN(C(=O)c3ccco3)CC2)c(Cl)c1)c1cc2ccccc2o1,"3.98 µM [falling, full curve] [measured here: IkB-luc green channel]"
9,Cc1ccc(Cn2c(-c3ccccc3)nc3ccccc32)cc1,"25.1 µM [falling, single point]"
10,COc1cc(/C=C(\C#N)c2nc3ccccc3c(=O)[nH]2)cc(OC)c1OC,"2.51 µM [falling, partial curve]"
11,COc1cccc(-c2cc(N)nn2C(=O)Nc2ccc(Cl)cc2)c1,"31.6 µM [falling, single point]"
12,Cc1ccc(C)c(Cn2c(=O)n(CCCCC(=O)NCc3ccccc3Cl)c(=O)c3ccccc32)c1,"0.0501 µM [rising, full curve, poor fit]"
13,CCOc1ccccc1NC(=O)Cn1ccn(-c2ccccc2)c(=O)c1=O,"10 µM [falling, partial curve]"
14,COc1ccccc1N1CCN(c2csc3ccc(Cl)cc3c2=O)CC1,"0.0398 µM [rising, full curve, poor fit]"
15,N#Cc1c(NC(=O)Cn2cnc3ccccc3c2=O)oc(-c2ccccc2)c1-c1ccccc1,"10 µM [falling, partial curve]"
16,Cn1c(=NC(=O)c2ccc3c(c2)OCCO3)sc2cc(S(C)(=O)=O)ccc21,"15.8 µM [rising, partial curve, poor fit]"
17,CCOC(=O)c1ccc(NC(=O)C2CCCN(c3ccc(Sc4ccc(C)cc4)nn3)C2)cc1 (configuration not stated),"10 µM [falling, partial curve]"

# Compounds 15 to 16, quoted:
row,Structure (SMILES),AC50
15,N#Cc1c(NC(=O)Cn2cnc3ccccc3c2=O)oc(-c2ccccc2)c1-c1ccccc1,"10 µM [falling, partial curve]"
16,Cn1c(=NC(=O)c2ccc3c(c2)OCCO3)sc2cc(S(C)(=O)=O)ccc21,"15.8 µM [rising, partial curve, poor fit]"
